These results are taken from US20220144922A1.

This assay deals with postfusion RSV F ectodomain, subtype B (respiratory syncytial virus subtype B). Nature of the assay: BLI, IgG on sensor. On the technique in general: BLI is a label-free optical method that tracks binding on a fibre tip over time.

No constants are given. Whether binding was seen depends on the method and setting.

B1: ADI-15560 (antibody, V domains shown)
VH: EVQLVESGGGVVQPGRSLRLSCVTSGFIFSNYAMHWVRQAPGKGLEWVAVISFDADNEYYAESVKGRFTISRDNSKNTMYLQMNSLRAGDTALYYCARDPLGIGVKGYVDFWGQGTLVTVSS
VL: SSELSQPPSVSVAPGETARITCGGDNFGSDGLHWYQQKPGQAPVLVIYYDSDRPSGIPERFSGSISGNTATLTISRVEAGDEADYFCQVWDSISDHLVFGGGTKVTVL
As to B1, the binding result is on record as “no binding (tested: BLI response <0.05 nm)”.

B2: ADI-15558 (antibody, V domains shown)
VH: QVQLVQSGGEVKKPGASVKVSCKASGYTFTTYGISWVRQAPGHGLEWLGWISPKNGNTKYAQKVQGRVTMTIDPTTSTAYMELRSLRSDDTAMYYCARDYIVAIVAALPHGMDVWGQGTLVTVSS
VL: QSVLTQPPSLSVSPGQTASISCSGDQLGNKYVCWYQQKPGQSPVLVIYQDSRRPSGVPERFSGSNSGNTATLTVGGTQPMDEADYYCQAWDSSIRVFGGGTKVTVL
In the case of B2, the binding result is “no binding (tested: BLI response <0.05 nm)”.
